Laboratory results published in publication PMC9700851, “Interaction kinetics between p115-RhoGEF and Gα13 are determined by unique molecular interactions affecting agonist sensitivity” (Communications Biology, 2022).
These are yes or no findings as the source states them, for the method shown. Binding seen in cells or lysates may run through a third protein. Some binding calls cover weakened binding; strength is not graded here.

Amino acid sequences for entries named in this document (tags omitted).
UniProt Q03113: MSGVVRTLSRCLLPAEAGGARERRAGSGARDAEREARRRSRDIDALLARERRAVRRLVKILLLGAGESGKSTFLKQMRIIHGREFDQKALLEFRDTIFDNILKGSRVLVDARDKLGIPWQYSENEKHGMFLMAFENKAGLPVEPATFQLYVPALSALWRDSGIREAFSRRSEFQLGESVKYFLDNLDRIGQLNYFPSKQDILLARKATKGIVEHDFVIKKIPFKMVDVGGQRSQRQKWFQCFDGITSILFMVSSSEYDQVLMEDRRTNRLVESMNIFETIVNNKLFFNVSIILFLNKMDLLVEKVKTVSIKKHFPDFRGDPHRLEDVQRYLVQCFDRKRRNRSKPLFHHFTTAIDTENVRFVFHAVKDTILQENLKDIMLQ
UniProt P10824: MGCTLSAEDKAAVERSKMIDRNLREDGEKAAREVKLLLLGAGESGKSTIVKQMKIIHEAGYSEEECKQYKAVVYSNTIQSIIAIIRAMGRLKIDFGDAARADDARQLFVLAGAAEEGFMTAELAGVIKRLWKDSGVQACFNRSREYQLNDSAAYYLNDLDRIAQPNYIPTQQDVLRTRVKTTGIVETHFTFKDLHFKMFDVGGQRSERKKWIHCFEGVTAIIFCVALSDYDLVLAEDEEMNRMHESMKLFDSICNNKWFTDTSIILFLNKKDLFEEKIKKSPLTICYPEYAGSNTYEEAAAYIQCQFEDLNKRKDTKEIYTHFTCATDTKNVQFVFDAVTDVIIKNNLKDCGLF
UniProt O15085: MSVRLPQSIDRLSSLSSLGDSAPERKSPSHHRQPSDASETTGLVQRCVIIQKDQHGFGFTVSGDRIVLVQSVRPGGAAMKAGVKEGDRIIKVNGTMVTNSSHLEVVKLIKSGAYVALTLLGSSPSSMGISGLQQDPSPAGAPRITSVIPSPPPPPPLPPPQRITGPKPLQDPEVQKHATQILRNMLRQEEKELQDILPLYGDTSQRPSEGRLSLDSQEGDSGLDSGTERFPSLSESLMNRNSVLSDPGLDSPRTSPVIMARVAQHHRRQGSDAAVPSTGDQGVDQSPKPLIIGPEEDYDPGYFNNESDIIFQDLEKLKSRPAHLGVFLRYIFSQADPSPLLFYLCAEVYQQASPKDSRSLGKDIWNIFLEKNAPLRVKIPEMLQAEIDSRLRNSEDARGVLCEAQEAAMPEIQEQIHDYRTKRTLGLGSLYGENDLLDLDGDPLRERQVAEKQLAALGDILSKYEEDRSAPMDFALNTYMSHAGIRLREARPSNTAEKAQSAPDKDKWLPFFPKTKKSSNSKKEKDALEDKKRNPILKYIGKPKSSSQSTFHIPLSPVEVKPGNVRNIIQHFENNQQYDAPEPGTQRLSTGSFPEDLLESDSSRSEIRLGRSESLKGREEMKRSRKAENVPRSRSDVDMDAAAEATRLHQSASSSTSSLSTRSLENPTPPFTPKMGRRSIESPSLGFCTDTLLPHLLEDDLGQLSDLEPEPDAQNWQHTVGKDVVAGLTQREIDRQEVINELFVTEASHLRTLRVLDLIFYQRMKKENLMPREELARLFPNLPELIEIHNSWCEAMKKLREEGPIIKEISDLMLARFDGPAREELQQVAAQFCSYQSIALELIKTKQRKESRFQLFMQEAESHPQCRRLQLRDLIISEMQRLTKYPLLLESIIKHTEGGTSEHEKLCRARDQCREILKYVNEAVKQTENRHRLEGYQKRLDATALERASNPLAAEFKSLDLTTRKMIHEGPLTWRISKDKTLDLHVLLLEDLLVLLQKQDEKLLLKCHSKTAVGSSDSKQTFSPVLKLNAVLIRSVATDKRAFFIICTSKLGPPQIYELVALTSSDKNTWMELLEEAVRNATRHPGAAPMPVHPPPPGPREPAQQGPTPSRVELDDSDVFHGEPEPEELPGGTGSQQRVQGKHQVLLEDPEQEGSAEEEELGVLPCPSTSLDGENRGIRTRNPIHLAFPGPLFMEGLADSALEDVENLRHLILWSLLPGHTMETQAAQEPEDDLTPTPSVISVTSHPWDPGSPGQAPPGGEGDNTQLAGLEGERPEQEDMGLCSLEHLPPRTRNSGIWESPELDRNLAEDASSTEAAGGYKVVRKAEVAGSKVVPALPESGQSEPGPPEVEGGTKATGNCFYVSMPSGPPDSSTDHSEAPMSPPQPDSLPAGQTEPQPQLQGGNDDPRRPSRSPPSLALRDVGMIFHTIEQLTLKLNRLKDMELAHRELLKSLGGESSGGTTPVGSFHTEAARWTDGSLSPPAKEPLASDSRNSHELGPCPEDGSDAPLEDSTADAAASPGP

T1: Gα13(135) (mTurquoise2 between amino acids 135 and 136) (mouse) (UniProt P27601)
T1 sequence: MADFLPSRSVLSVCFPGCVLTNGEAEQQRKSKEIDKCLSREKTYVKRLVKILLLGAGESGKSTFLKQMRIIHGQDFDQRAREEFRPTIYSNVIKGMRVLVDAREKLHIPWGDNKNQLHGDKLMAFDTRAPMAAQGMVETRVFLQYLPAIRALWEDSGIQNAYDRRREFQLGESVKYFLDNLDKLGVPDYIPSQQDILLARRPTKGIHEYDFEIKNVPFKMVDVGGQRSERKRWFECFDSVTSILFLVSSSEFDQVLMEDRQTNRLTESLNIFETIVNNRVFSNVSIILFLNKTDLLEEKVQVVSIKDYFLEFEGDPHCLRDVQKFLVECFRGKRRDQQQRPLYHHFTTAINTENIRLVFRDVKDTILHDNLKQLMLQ

T2: Gα13-mTurq2 (mTurquoise2 between amino acids 127 and 128) (mouse) (UniProt P27601)
T2 sequence: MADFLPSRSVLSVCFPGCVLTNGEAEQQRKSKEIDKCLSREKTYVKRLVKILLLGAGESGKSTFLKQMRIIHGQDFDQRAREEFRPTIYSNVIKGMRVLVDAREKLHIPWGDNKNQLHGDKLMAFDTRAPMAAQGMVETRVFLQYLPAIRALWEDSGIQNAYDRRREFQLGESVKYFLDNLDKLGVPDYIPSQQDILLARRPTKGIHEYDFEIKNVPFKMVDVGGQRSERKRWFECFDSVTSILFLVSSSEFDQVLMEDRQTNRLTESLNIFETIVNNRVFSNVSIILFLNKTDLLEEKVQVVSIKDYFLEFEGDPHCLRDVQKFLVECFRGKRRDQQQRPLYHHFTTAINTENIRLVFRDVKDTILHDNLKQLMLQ

T3: Gα13(135)R128A (mouse, UniProt P27601 1-377, R128A)
T3 construct: Gα13, mouse; also called Gα13-R128A; source: HEK293T, transfected, in intact cells
T3 sequence (looked up): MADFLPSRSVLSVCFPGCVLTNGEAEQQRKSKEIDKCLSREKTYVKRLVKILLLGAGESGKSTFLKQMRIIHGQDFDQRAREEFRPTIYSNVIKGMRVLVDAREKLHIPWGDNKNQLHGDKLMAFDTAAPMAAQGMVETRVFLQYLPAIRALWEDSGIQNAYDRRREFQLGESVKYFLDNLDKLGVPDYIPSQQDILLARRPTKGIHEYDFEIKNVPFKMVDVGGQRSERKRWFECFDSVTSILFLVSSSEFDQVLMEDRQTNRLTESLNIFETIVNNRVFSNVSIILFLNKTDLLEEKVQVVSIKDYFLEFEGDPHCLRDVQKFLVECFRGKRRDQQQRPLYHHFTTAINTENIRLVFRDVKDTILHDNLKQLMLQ


Experiments:
Assay in all cases: FRET or BRET; single-cell FRET in intact HEK293T cells co-transfected with TPα receptor, Gβ1 and Gγ2; donor mTurquoise2 (or CFP) on the Gα subunit, acceptor YFP on the RhoGEF; F535/F480 emission ratio on superfusion with the agonist U-46619 and after its washout (AUC of decay over the 10 min washout); room temperature, buffer pH 7.3
[1] = molecular target: T1, Gα13(135) (mTurquoise2 between amino acids 135 and 136) (mouse)
Gα12-CFP = Gα12-CFP (UniProt Q03113)
Gαi-mTurq2 (rat) = Gαi-mTurq2 (rat) (UniProt P10824)
[2] = molecular target: T2, Gα13-mTurq2 (mTurquoise2 between amino acids 127 and 128) (mouse)
Gα13(135)R128A = molecular target: T3, Gα13(135)R128A

binding [1]	binding (Gα12-CFP)	binding (Gαi-mTurq2 (rat))	binding [2]	binding (Gα13(135)R128A)	Molecule
binds	–	–	–	–	LARG-G359E (from UniProt Q9NZN5 1-1544)
binds	binds	no binding	binds	binds	eYFP-PDZ-RhoGEF (from UniProt O15085 1-1522)
–	binds	no binding	–	–	eYFP-human LARG (leukemia-associated RhoGEF) (natural protein, UniProt Q9NZN5 1-1544, looked up, LARG (leukemia-associated RhoGEF), human; also called YFP-LARG; wt-LARG; source: HEK293T, transfected, in intact cells; not shown: YFP, N-terminal, kept) MSGTQSTITDRFPLKKPIRHGSILNRESPTDKKQKVERIASHDFDPTDSSSKKTKSSSEESRSEIYGLVQRCVIIQKDDNGFGLTVSGDNPVFVQSVKEDGAAMRAGVQTGDRIIKVNGTLVTHSNHLEVVKLIKSGSYVALTVQGRPPGSPQIPLADSEVEPSVIGHMSPIMTSPHSPGASGNMERITSPVLMGEENNVVHNQKVEILRKMLQKEQERLQLLQEDYNRTPAQRLLKEIQEAKKHIPQLQEQLSKATGSAQDGAVVTPSRPLGDTLTVSEAETDPGDVLGRTDCSSGDASRPSSDNADSPKSGPKERIYLEENPEKSETIQDTDTQSLVGSPSTRIAPHIIGAEDDDFGTEHEQINGQCSCFQSIELLKSRPAHLAVFLHHVVSQFDPATLLCYLYSDLYKHTNSKETRRIFLEFHQFFLDRSAHLKVSVPDEMSADLEKRRPELIPEDLHRHYIQTMQERVHPEVQRHLEDFRQKRSMGLTLAESELTKLDAERDKDRLTLEKERTCAEQIVAKIEEVLMTAQAVEEDKSSTMQYVILMYMKHLGVKVKEPRNLEHKRGRIGFLPKIKQSMKKDKEGEEKGKRRGFPSILGPPRRPSRHDNSAIGRAMELQKARHPKHLSTPSSVSPEPQDSAKLRQSGLANEGTDAGYLPANSMSSVASGASFSQEGGKENDTGSKQVGETSAPGDTLDGTPRTLNTVFDFPPPPLDQVQEEECEVERVTEHGTPKPFRKFDSVAFGESQSEDEQFENDLETDPPNWQQLVSREVLLGLKPCEIKRQEVINELFYTERAHVRTLKVLDQVFYQRVSREGILSPSELRKIFSNLEDILQLHIGLNEQMKAVRKRNETSVIDQIGEDLLTWFSGPGEEKLKHAAATFCSNQPFALEMIKSRQKKDSRFQTFVQDAESNPLCRRLQLKDIIPTQMQRLTKYPLLLDNIAKYTEWPTEREKVKKAADHCRQILNYVNQAVKEAENKQRLEDYQRRLDTSSLKLSEYPNVEELRNLDLTKRKMIHEGPLVWKVNRDKTIDLYTLLLEDILVLLQKQDDRLVLRCHSKILASTADSKHTFSPVIKLSTVLVRQVATDNKALFVISMSDNGAQIYELVAQTVSEKTVWQDLICRMAASVKEQSTKPIPLPQSTPGEGDNDEEDPSKLKEEQHGISVTGLQSPDRDLGLESTLISSKPQSHSLSTSGKSEVRDLFVAERQFAKEQHTDGTLKEVGEDYQIAIPDSHLPVSEERWALDALRNLGLLKQLLVQQLGLTEKSVQEDWQHFPRYRTASQGPQTDSVIQNSENIKAYHSGEGHMPFRTGTGDIATCYSPRTSTESFAPRDSVGLAPQDSQASNILVMDHMIMTPEMPTMEPEGGLDDSGEHFFDAREAHSDENPSEGDGAVNKEEKDVNLRISGNYLILDGYDPVQESSTDEEVASSLTLQPMTGIPAVESTHQQQHSPQNTHSDGAISPFTPEFLVQQRWGAMEYSCFEIQSPSSCADSQSQIMEYIHKIEADLEHLKKVEESYTILCQRLAGSALTDKHSDKS
